Drawing on article PMC6771385, this text covers binding for two molecules.

The chains behind the UniProt entries cited, without tags or fusion partners.
UniProt P93830: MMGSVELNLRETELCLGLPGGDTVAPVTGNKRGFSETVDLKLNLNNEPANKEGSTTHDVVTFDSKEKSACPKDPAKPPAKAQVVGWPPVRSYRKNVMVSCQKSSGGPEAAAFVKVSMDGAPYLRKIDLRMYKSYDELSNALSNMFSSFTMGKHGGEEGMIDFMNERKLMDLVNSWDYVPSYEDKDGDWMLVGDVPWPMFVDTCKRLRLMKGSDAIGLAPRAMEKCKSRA

Assay [1] has as its target T1, eGFP-ARF16-PB1 (Oryza sativa) (UniProt A3B9A0).
T1 sequence: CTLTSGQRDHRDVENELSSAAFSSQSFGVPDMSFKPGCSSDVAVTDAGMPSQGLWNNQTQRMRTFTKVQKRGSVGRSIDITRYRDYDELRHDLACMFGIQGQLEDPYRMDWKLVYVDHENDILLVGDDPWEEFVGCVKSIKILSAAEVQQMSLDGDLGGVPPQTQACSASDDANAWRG
Briefly: co-IP; anti-GFP antibody-conjugated magnetic beads precipitate eGFP-ARF16-PB1 (wild type or mutant) from lysate of transfected HEK293T cells without TIR1; blot for mCherry; lysis and wash buffer 50 mM Tris pH 7.5, 150 mM NaCl, 0.5% NP-40, 1 mM EDTA; 1.5 h at 4°C.

A further assay has as its target NLS-mCherry-AID (UniProt P93830). Briefly: co-IP; reciprocal: anti-mCherry-conjugated affinity gel precipitates mCherry-AID from lysate of HEK293T, HEK293T-eGFP-ARF16-PB1 and HEK293T-TIR1-eGFP-ARF16-PB1 cells; blots for GFP and TIR1; 50 mM Tris pH 7.5, 150 mM NaCl, 0.5% NP-40, 1 mM EDTA; 1.5 h at 4°C.

These are yes or no findings as the source states them, for the method shown. Binding seen in cells or lysates may run through a third protein. Some results given as binding are weak or reduced against the parent protein; the word gives no strength. Tags and fused reporters may be left off the sequences shown.

As for “NLS-mCherry-AID (from UniProt P93830 1-229)”, in assay [1], the binding result is given as “binds”.

B1: eGFP-ARF16-PB1 (domain or fragment, UniProt A3B9A0 878-1055)
chain: T1 sequence
With B1, the binding entry in the assay with NLS-mCherry-AID is “binds”.
